# Assay results

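A cell-based FRET test of anthrax lethal toxin entry, tracked through the 460 nm emission signal; the cell line is not named here.
Each compound was tested as a concentration series from about 0.0005 to 40 µM.
The number is the fitted AC50 of the 460 nm signal alone; lower values mean a more potent effect. A falling signal goes with compounds filed as inhibitors or cytotoxic, a rising one with activators or fluorescent compounds (inferred from the filed classes).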

Values are in µM.
Common to all entries: measured here: 460 nm channel.
Part of the compounds only, not a random draw; the main read-out is not listed here.
A potency from a partial, single-point or poor curve is only a rough figure.
The first word of each remark tells which way the curve ran; it can be opposite to the aim of the assay.

| SMILES | AC50 (µM) | remark |
|---|---|---|
| `CN(C)c1ccc(-c2nc(Nc3ccncc3)c3ccccc3n2)cc1` | 12.59 | falling, partial curve |
| `CCCCOCCCNC(=O)Cc1cccs1` | 10 | rising, single point |
| `O=S(=O)(c1cccc(-c2nnc(SCc3nc4ccccc4s3)o2)c1)N1CCOCC1` | 12.59 | rising, partial curve |
| `C[C@@]12CCC[C@](C)(C(=O)O)[C@@H]1CCc1ccc(O)cc12` | 0.7943 | falling, full curve, poor fit |
| `O=C(c1oc2ccccc2c1CSCc1ccccc1)N1CCN(c2ncccn2)CC1` | 10 | falling, partial curve |
| `CC(=O)Nc1ccc2oc(-c3ccccc3Br)nc2c1` | 19.95 | rising, single point |
| `Cc1ccc(-c2cn3nc(C)c(C)nc3n2)cc1` | 0.03162 | rising, full curve, poor fit |
| `Fc1ccc(C(c2ccc(F)cc2)N2CCN(C/C=C\c3ccccc3)CC2)cc1` | 12.59 | falling, single point |
| `CC(=O)C1=C(O)C(=O)N(CCCCCC(=O)O)C1c1ccc(N(C)C)cc1` (stereo unspecified) | 5.012 | falling, partial curve |
| `COc1ccccc1NC(=O)COc1ccc(CO)cc1Cl` | 25.12 | falling, single point |
| `Cc1ccc(C(C)C)c(OCCCN2CC(C)OC(C)C2)c1` (stereo unspecified) | 25.12 | falling, single point |
| `CN(C)c1ncc2nc(-c3cccs3)c(=O)n(-c3ccccc3)c2n1` | 10 | rising, partial curve |
| `Cn1cc(-c2nc3cncnc3n(-c3ccccc3)c2=O)c2ccccc21` | 10 | rising, partial curve |
| `COc1ccc(Cl)cc1N1CCN(CCNC(=O)Nc2ccccc2C)CC1` | 31.62 | falling, single point |
| `COc1ccc(CC(=O)Nc2cccc(-c3nnc(-c4ccccc4)o3)c2)cc1OC` | 10 | falling, partial curve |
| `Cc1ccc(S(=O)(=O)Nc2nc3ccccc3nc2NCc2ccco2)cc1` | 6.31 | rising, partial curve |
| `COc1ccc(Nc2oc(COc3cccc(C)c3)nc2C#N)cc1` | 5.012 | falling, partial curve |
| `CN1CCN(c2ncc3nc(-c4cccs4)c(=O)n(Cc4cccs4)c3n2)CC1` | 0.3162 | rising, full curve, poor fit |
| `Cc1ccccc1OCC(=O)Nc1ccccc1N1CCOCC1` | 19.95 | falling, single point |
| `COCCNc1nc(-c2cccc(OC)c2)nc2ccccc12` | 5.012 | falling, single point |
| `Nc1ccc2c(c1)C(=O)c1ccccc1C2=O` | 31.62 | falling, single point |
| `Cc1noc(C)c1C(=O)N1CCC2(CCCN(C(c3ccccc3)c3ccccc3)C2)CC1` | 12.59 | rising, single point |
| `CN=C1N[C@H](c2ccccc2)N(c2ccccc2)S1` | 25.12 | falling, partial curve |
| `COc1ccccc1NC(=O)N1CCn2c(nc3ccccc32)C1` | 0.03162 | rising, full curve, poor fit |
| `O=c1c(-c2cccs2)nc2cncnc2n1-c1ccccc1` | 10 | rising, partial curve |
| `COc1ccc(N2CCN(CCCNC(=O)C3CCCN(S(=O)(=O)c4cnc[nH]4)C3)CC2)cc1` (stereo unspecified) | 10 | rising, single point |
| `COc1cccc(Nc2ncc3nc(C)c(=O)n(Cc4cccs4)c3n2)c1` | 12.59 | rising, partial curve |
| `CC(C)(c1cc(Br)c(O)c(Br)c1)c1cc(Br)c(O)c(Br)c1` | 31.62 | falling, partial curve |
| `NC1CCCCC1N=Cc1c(O)n(Cc2ccc(F)cc2)c(=O)[nH]c1=O` (stereo unspecified) | 10 | rising, partial curve |
| `CCC1CCCCN1C(=O)c1cc(-c2ccc(Cl)c(Cl)c2)on1` (stereo unspecified) | 7.943 | falling, partial curve |
| `CCOC(=O)N1CCC(N(CCOC)C(=O)Nc2ccc(Cl)cc2)CC1` | 12.59 | rising, partial curve, poor fit |
| `Cc1cccc(CNc2nc(-c3ccccc3CN(C)C)nc3ccccc23)c1` | 12.59 | falling, single point |
| `O=C(CSc1n[nH]c(-c2cccs2)n1)N1CCN(S(=O)(=O)c2ccccc2)CC1` | 31.62 | rising, single point |
| `COc1ccc(Cn2c(N)c(C(=O)NCc3ccco3)c3nc4ccccc4nc32)cc1OC` | 12.59 | rising, partial curve |
| `COC(=O)[C@@]1(Cc2ccc(F)cc2)[C@H]2c3cc(C(=O)N(C)C)n(CCc4ccccn4)c3C[C@H]2CN1C(=O)c1ccccc1` | 6.31 | rising, partial curve |
| `O=C(c1cn(-c2ccccc2)nc1-c1ccccc1)N1CCOCC1` | 0.01 | falling, full curve |
| `O=C(O)CC[C@@H](C(=O)O)N1C(=O)[C@@H]2[C@@H]3CC[C@H](C3)[C@@H]2C1=O` | 0.7943 | falling, single point |
| `COc1ccc(CNc2nc3nc(C)cc(C)n3n2)cc1OC` | 0.01 | falling, full curve |
| `Cc1cccc(-n2nnnc2SCc2csc(-c3ccccc3)n2)c1` | 10 | falling, partial curve, poor fit |
| `Cn1c(=O)c2c(ncn2CC(=O)Nc2cc(Cl)c(Cl)cc2Cl)n(C)c1=O` | 5.012 | falling, full curve |
| `Cc1ccccc1C(=N)c1ccccc1Cc1cccc2ccccc12` | 3.981 | falling, single point |
| `C=CCN1CC[C@@]23c4c5ccc(O)c4O[C@H]2/C(=N\N=C2/CC[C@@]4(O)[C@H]6Cc7ccc(O)c8c7[C@@]4(CCN6CC=C)[C@@H]2O8)CC[C@]3(O)[C@@H]1C5` | 31.62 | falling, single point |
| `Cc1cc(-n2c(SCC(=O)NCc3cccs3)nc3n[nH]c(C)c3c2=N)ccc1Cl` | 1.995 | falling, full curve |
| `COc1ccc(OC)c(N/C(=N\c2nc(C)cc(C)n2)NC(=O)c2ccco2)c1` | 31.62 | falling, single point |
| `COc1cccc(/C(O)=C2/C(=O)C(=O)N(CCN(C)C)C2c2ccccn2)c1` (stereo unspecified) | 10 | falling, partial curve, poor fit |
| `c1ccc(CSc2nnc(-c3cccs3)o2)cc1` | 15.85 | falling, single point |
| `CN1C(=O)N(C)C(=O)C2(Sc3ccccc3C2=O)C1=O` | 10 | falling, single point |
| `COc1ccc(Cl)cc1C(=O)Nc1ccccc1N1CCN(C(=O)C(C)C)CC1` | 12.59 | rising, partial curve |
| `Cc1ccc(-c2cc(C(=O)Nc3cc(C)on3)c3ccccc3n2)c(C)c1` | 3.981 | falling, partial curve |
| `N#Cc1nc(COc2ccccc2F)oc1N1CCCCCC1` | 6.31 | falling, partial curve |
| `COc1ccc(N2CCN(c3cc(C)c4ccc(O)cc4n3)CC2)cc1` | 12.59 | falling, partial curve |
| `CCCc1cc(=O)oc2cc(C)c3c(C)coc3c12` | 10 | falling, partial curve |
| `Cc1noc(C(=O)Nc2ccc3c(c2)OCO3)c1Cl` | 15.85 | falling, partial curve |
| `O[C@H](CCCN1CCN(c2ncc(F)cn2)CC1)c1ccc(F)cc1` | 12.59 | falling, partial curve |
| `COc1ccccc1CCn1c(=O)c(-c2cccs2)nc2cncnc21` | 10 | rising, partial curve |
| `CCOc1ccc(NC(=O)Nc2ccc3c(c2)N(C)C(=O)CS3)cc1` | 19.95 | falling, single point |
| `CN1CCN(c2ncc3nc(-c4cn(C)c5ccccc45)c(=O)n(C)c3n2)CC1` | 10 | rising, partial curve |
| `O=C(/C=C\Nc1ccc2c(c1)OCO2)c1ccccn1` | 12.59 | rising, partial curve |
| `COc1cc(NC(=O)CSc2nc3ccccc3c(=O)n2C)ccc1NC(=O)c1ccco1` | 5.012 | rising, single point |
| `CCCCn1c(O)c(C(CC)=NCc2ccc3c(c2)OCO3)c(=O)[nH]c1=O` | 12.59 | rising, single point |

Repeated from the top, 5 entries:

SMILES,AC50 (µM),remark
CN(C)c1ccc(-c2nc(Nc3ccncc3)c3ccccc3n2)cc1,12.59,"falling, partial curve"
CCCCOCCCNC(=O)Cc1cccs1,10,"rising, single point"
O=S(=O)(c1cccc(-c2nnc(SCc3nc4ccccc4s3)o2)c1)N1CCOCC1,12.59,"rising, partial curve"
C[C@@]12CCC[C@](C)(C(=O)O)[C@@H]1CCc1ccc(O)cc12,0.7943,"falling, full curve, poor fit"
O=C(c1oc2ccccc2c1CSCc1ccccc1)N1CCN(c2ncccn2)CC1,10,"falling, partial curve"

From PubChem BioAssay record AID912 (NCATS, 2007).